{"source": "PubChem BioAssay AID504791 (Drosophila RNAi Screening Center, 2011)", "aim": "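Genes of the fly required for silencing by miRNA, siRNA or endo-siRNA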 (primary screen)", "system": "Drosophila S2-derived reporter cells", "knock-down reagent": "long dsRNA against Drosophila genes, about 150-250 ng dsRNA per well (siRNA assay); about 80-120 ng (miRNA assay)", "time to read-out": "about 5 days (siRNA assay); about 4 days (miRNA assay)", "treatment": "copper sulfate induction of reporters: 25 µM (siRNA assay); 200 mM stated (miRNA assay), 1-2 days before reading", "read-out": "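Dual luciferase assay: Renilla to firefly signal ratio in each well, scaled to the mean ratio of its plate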", "direction": "siRNA reporter hit score: higher = 3 marks a strong hit with raised ratio; -3 a strong hit with lowered ratio", "units": "stable assay Renilla, run 1 in luminescence; stable assay firefly, run 1 in luminescence", "active means": "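First-pass picks had plate-scaled ratios over 1.5 for the siRNA assay, over 1.6 for the miRNA assay, or under 0.6; two distinct dsRNAs had to score alike on retest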", "note": "The screen tested about 23,000 reagents; below is a random part of those with a known target gene and a result. Of all reagents, 199 (0.86%) are marked active. 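Plate-scaled ratios behind the calls are not deposited; printed light signals are raw; many rows marked increased or decreased are still called inactive.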 Reagent sequences are not shown."}
{"Gene":"CG8064 (GeneID 42196)","amplicon":"DRSC16373","stable assay Renilla, run 1":11810,"stable assay firefly, run 1":4.63e5,"activity call":"inactive"}
{"Gene":"CG9117 (GeneID 33846)","amplicon":"DRSC03141","stable assay Renilla, run 1":7867,"stable assay firefly, run 1":4.54e5,"activity call":"inactive"}
{"Gene":"CG5693 (GeneID 50463)","amplicon":"DRSC02878","stable assay Renilla, run 1":7671,"stable assay firefly, run 1":5.05e5,"activity call":"inactive"}
{"Gene":"CG14050 (GeneID 31218)","amplicon":"DRSC18594","stable assay Renilla, run 1":6238,"stable assay firefly, run 1":4.12e5,"activity call":"inactive"}
{"Gene":"Snoo (GeneID 5740414)","amplicon":"DRSC01008","stable assay Renilla, run 1":4223,"stable assay firefly, run 1":3.30e5,"activity call":"inactive"}
{"Gene":"Snoo (GeneID 5740414)","amplicon":"DRSC03004","stable assay Renilla, run 1":83904,"stable assay firefly, run 1":2.13e5,"activity call":"inactive"}
{"Gene":"Snoo (GeneID 5740414)","amplicon":"DRSC03035","stable assay Renilla, run 1":6650,"stable assay firefly, run 1":3.32e5,"activity call":"inactive"}
{"Gene":"CG32643 (GeneID 318138)","amplicon":"DRSC18962","stable assay Renilla, run 1":4788,"stable assay firefly, run 1":3.98e5,"activity call":"inactive"}
{"Gene":"mRpL45 (GeneID 42671)","amplicon":"DRSC16146","stable assay Renilla, run 1":5838,"stable assay firefly, run 1":3.81e5,"activity call":"inactive"}
{"Gene":"CG11050 (GeneID 33924)","amplicon":"DRSC02125","siRNA reporter hit score":3,"miRNA reporter change":"reporter ratio lowered past the hit cutoff","stable assay Renilla, run 1":30824,"stable assay firefly, run 1":5.85e5,"activity call":"inactive"}
{"Gene":"beat-Ic (GeneID 34945)","amplicon":"DRSC01524","stable assay Renilla, run 1":5860,"stable assay firefly, run 1":3.50e5,"activity call":"inactive"}
{"Gene":"beat-Ic (GeneID 34945)","amplicon":"DRSC03491","stable assay Renilla, run 1":7387,"stable assay firefly, run 1":3.19e5,"activity call":"inactive"}
{"Gene":"piwi (GeneID 34521)","amplicon":"DRSC03592","stable assay Renilla, run 1":8274,"stable assay firefly, run 1":7.72e5,"activity call":"inactive"}
{"Gene":"fuss (GeneID 43835)","amplicon":"DRSC17200","stable assay Renilla, run 1":6818,"stable assay firefly, run 1":4.14e5,"activity call":"inactive"}
{"Gene":"fuss (GeneID 43835)","amplicon":"DRSC21452","stable assay Renilla, run 1":10376,"stable assay firefly, run 1":6.05e5,"activity call":"inactive"}

4 of these entries, set out differently.
Snoo (GeneID 5740414) [DRSC03004]
- stable assay Renilla, run 1: 83904
- stable assay firefly, run 1: 2.13e5
- activity call: inactive

Snoo (GeneID 5740414) [DRSC03035]
- stable assay Renilla, run 1: 6650
- stable assay firefly, run 1: 3.32e5
- activity call: inactive

CG32643 (GeneID 318138) [DRSC18962]
- stable assay Renilla, run 1: 4788
- stable assay firefly, run 1: 3.98e5
- activity call: inactive

mRpL45 (GeneID 42671) [DRSC16146]
- stable assay Renilla, run 1: 5838
- stable assay firefly, run 1: 3.81e5
- activity call: inactive

The listing continues:
{"Gene":"ImpE3 (GeneID 48239)","amplicon":"DRSC16716","stable assay Renilla, run 1":5852,"stable assay firefly, run 1":3.50e5,"activity call":"inactive"}
{"Gene":"CG17754 (GeneID 31873)","amplicon":"DRSC18131","stable assay Renilla, run 1":7378,"stable assay firefly, run 1":4.29e5,"activity call":"inactive"}
{"Gene":"Ucp4C (GeneID 33832)","amplicon":"DRSC03132","stable assay Renilla, run 1":6658,"stable assay firefly, run 1":3.32e5,"activity call":"inactive"}
{"Gene":"SelT (GeneID 33725)","amplicon":"DRSC02732","stable assay Renilla, run 1":9811,"stable assay firefly, run 1":1.87e5,"activity call":"inactive"}
{"Gene":"CG3032 (GeneID 31648)","amplicon":"DRSC18266","stable assay Renilla, run 1":5672,"stable assay firefly, run 1":2.84e5,"activity call":"inactive"}
{"Gene":"Ubi-p63E (GeneID 38456)","amplicon":"DRSC22016","stable assay Renilla, run 1":8891,"stable assay firefly, run 1":6.42e5,"activity call":"inactive"}
{"Gene":"Sdhaf3 (GeneID 42004)","amplicon":"DRSC15020","stable assay Renilla, run 1":7176,"stable assay firefly, run 1":4.78e5,"activity call":"inactive"}
{"Gene":"ppk17 (GeneID 35006)","amplicon":"DRSC02252","stable assay Renilla, run 1":7003,"stable assay firefly, run 1":5.01e5,"activity call":"inactive"}
{"Gene":"CG11300 (GeneID 37760)","amplicon":"DRSC04104","stable assay Renilla, run 1":6587,"stable assay firefly, run 1":3.34e5,"activity call":"inactive"}
{"Gene":"Tbcc (GeneID 319048)","amplicon":"DRSC00223","stable assay Renilla, run 1":4690,"stable assay firefly, run 1":3.40e5,"activity call":"inactive"}
{"Gene":"eIF3d1 (GeneID 42789)","amplicon":"DRSC16938","stable siRNA reporter change":"reporter ratio lowered past the hit cutoff","stable assay Renilla, run 1":4304,"stable assay firefly, run 1":3.74e5,"activity call":"inactive"}
{"Gene":"Ice1 (GeneID 37701)","amplicon":"DRSC04191","stable siRNA reporter change":"reporter ratio raised past the hit cutoff","stable assay Renilla, run 1":8529,"stable assay firefly, run 1":2.86e5,"activity call":"inactive"}
{"Gene":"Ir51b (GeneID 246442)","amplicon":"DRSC05540","stable assay Renilla, run 1":3892,"stable assay firefly, run 1":3.00e5,"activity call":"inactive"}
{"Gene":"CG6040 (GeneID 42292)","amplicon":"DRSC15954","stable assay Renilla, run 1":8603,"stable assay firefly, run 1":3.21e5,"activity call":"inactive"}
{"Gene":"betaTub60D (GeneID 37888)","amplicon":"DRSC04673","stable assay Renilla, run 1":5451,"stable assay firefly, run 1":3.47e5,"activity call":"inactive"}
{"Gene":"betaTub60D (GeneID 37888)","amplicon":"DRSC22218","stable assay Renilla, run 1":8577,"stable assay firefly, run 1":5.38e5,"activity call":"inactive"}
{"Gene":"sdt (GeneID 44861)","amplicon":"DRSC17555","stable assay Renilla, run 1":4787,"stable assay firefly, run 1":3.68e5,"activity call":"inactive"}
{"Gene":"sdt (GeneID 44861)","amplicon":"DRSC17556","stable assay Renilla, run 1":4800,"stable assay firefly, run 1":3.59e5,"activity call":"inactive"}
{"Gene":"sdt (GeneID 44861)","amplicon":"DRSC17860","stable assay Renilla, run 1":5586,"stable assay firefly, run 1":3.66e5,"activity call":"inactive"}
{"Gene":"sdt (GeneID 44861)","amplicon":"DRSC17861","stable assay Renilla, run 1":5803,"stable assay firefly, run 1":3.80e5,"activity call":"inactive"}
{"Gene":"sdt (GeneID 44861)","amplicon":"DRSC18022","stable assay Renilla, run 1":4908,"stable assay firefly, run 1":3.29e5,"activity call":"inactive"}
{"Gene":"sdt (GeneID 44861)","amplicon":"DRSC18025","siRNA reporter hit score":3,"stable assay Renilla, run 1":4439,"stable assay firefly, run 1":1.69e5,"activity call":"inactive"}
{"Gene":"sdt (GeneID 44861)","amplicon":"DRSC18026","stable assay Renilla, run 1":4460,"stable assay firefly, run 1":1.87e5,"activity call":"inactive"}
{"Gene":"sdt (GeneID 44861)","amplicon":"DRSC18027","stable assay Renilla, run 1":4970,"stable assay firefly, run 1":2.43e5,"activity call":"inactive"}
{"Gene":"sdt (GeneID 44861)","amplicon":"DRSC18108","stable assay Renilla, run 1":7278,"stable assay firefly, run 1":5.07e5,"activity call":"inactive"}
